The record followed here is paper PMC7800377.

By UniProt entry, the sequences of proteins in these tests, tags left out. Residues count along the entry.
UniProt Q9UH99, residues 522-717: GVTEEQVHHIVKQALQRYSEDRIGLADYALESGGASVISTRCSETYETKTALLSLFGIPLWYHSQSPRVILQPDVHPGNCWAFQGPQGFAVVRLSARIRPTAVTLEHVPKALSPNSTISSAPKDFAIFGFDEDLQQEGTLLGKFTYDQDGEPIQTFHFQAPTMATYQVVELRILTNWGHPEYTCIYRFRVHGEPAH
UniProt Q8NF91, residues 8769-8797: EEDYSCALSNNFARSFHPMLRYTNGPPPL

These are yes or no findings as the source states them, for the method shown. Some entries that bind do so weakly or less than the wild type.

Experiment [1] has as its target GCN4-SUN2 (His6-GCN4 fusion of the SUN domain of human SUN2, residues 522–717), wild-type (human) (UniProt Q9UH99). The experiment can be described thus: SEC; GCN4-SUN and MBP-KASH co-expressed, purified by amylose affinity and ion exchange, whole elution pooled and run on analytical gel filtration (Superdex 200 Increase 10/300 GL) in 20 mM Tris pH 8.0, 150 mM KCl, 2 mM DTT; fractions by SDS-PAGE; both purified. (In general: Size exclusion chromatography separates by hydrodynamic size, large species first.)

The target in experiment [2] is MBP-KASH1 (His6-MBP fusion of the KASH domain of human Nesprin-1, residues 8769–8797) (human) (UniProt Q8NF91). The experiment can be described thus: SEC-MALS; co-expressed and co-purified samples at >1 mg/ml on Superdex 200 Increase 10/300 GL in 20 mM Tris pH 8.0, 150 mM KCl, 2 mM DTT; both purified.

Turning to “MBP-KASH1 (His6-MBP fusion of the KASH domain of human Nesprin-1, residues 8769–8797) (from UniProt Q8NF91 8769-8797) (domain or fragment)”, the binding entry is reported as “binds” in experiment [1] and “no binding” in experiment [2].
